Data as given in PubChem BioAssay AID1259308 (NCATS, 2017)
Shown is a random part of about 59,000 reagents. Of all reagents, about 1,510 (2.6%) are marked active. 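Calls use total luciferase alone and ignore viability, so some active siRNAs may act by altering cell number.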

- Purpose: 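Knock-downs that increase output of a recombinant reporter protein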 (primary screen)
- System: human HEK293 embryonic kidney cells stably expressing firefly luciferase (HEK-CMV-Luc2-Hygro)
- Reagents: single siRNA against human genes, 0.8 pmol siRNA per well
- Duration: 72 h
- Read-out: 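Reporter luminescence and viable-cell signal on separate replicate plates, given as percent of non-targeting control and median/MAD z-scores, plus per-cell luciferase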
- Direction: total luciferase, z-score and total luciferase, % of control: higher = more reporter protein produced; luciferase per cell, z-score: higher = more reporter output per viable cell; viable cells, % of control: higher = more viable cells
- Active means: 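An siRNA counts as active if its total luciferase robust z-score exceeds 3; genes with two or more such siRNAs out of three were retested with fresh siRNAs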
- Meaning of the calls: active = raised luciferase; inactive = no rise

The opening 5 records, to show the layout:
| Gene | PubChem SID | total luciferase, z-score | total luciferase, % of control | luciferase per cell, z-score | viable cells, % of control | outcome |
| --- | --- | --- | --- | --- | --- | --- |
| VCF1 (VCP nuclear cofactor family member 1) | SID160752947 | -2.39 | 34.3 | -2.57 | 75.4 | inactive |
| VCF1 (VCP nuclear cofactor family member 1) | SID160752948 | 0.164 | 85.1 | 0.312 | 87.7 | inactive |
| VCF1 (VCP nuclear cofactor family member 1) | SID160752949 | 0.699 | 95.8 | 0.00388 | 107 | inactive |
| SBDS (SBDS ribosome maturation factor) | SID160740110 | -0.146 | 79 | -0.117 | 91 | inactive |
| SBDS (SBDS ribosome maturation factor) | SID160740111 | -0.432 | 73.3 | -0.0914 | 83.9 | inactive |

The list itself, repeating the preview:
| Gene | PubChem SID | total luciferase, z-score | total luciferase, % of control | luciferase per cell, z-score | viable cells, % of control | outcome |
| --- | --- | --- | --- | --- | --- | --- |
| VCF1 (VCP nuclear cofactor family member 1) | SID160752947 | -2.39 | 34.3 | -2.57 | 75.4 | inactive |
| VCF1 (VCP nuclear cofactor family member 1) | SID160752948 | 0.164 | 85.1 | 0.312 | 87.7 | inactive |
| VCF1 (VCP nuclear cofactor family member 1) | SID160752949 | 0.699 | 95.8 | 0.00388 | 107 | inactive |
| SBDS (SBDS ribosome maturation factor) | SID160740110 | -0.146 | 79 | -0.117 | 91 | inactive |
| SBDS (SBDS ribosome maturation factor) | SID160740111 | -0.432 | 73.3 | -0.0914 | 83.9 | inactive |
| SBDS (SBDS ribosome maturation factor) | SID160740112 | -2.54 | 31.3 | -2.95 | 76 | inactive |
| B3GALT5-AS1 (B3GALT5 antisense RNA 1) | SID160732346 | -0.363 | 74.7 | -1.04 | 110 | inactive |
| B3GALT5-AS1 (B3GALT5 antisense RNA 1) | SID160754895 | -2.73 | 27.6 | -1.61 | 47.1 | inactive |
| B3GALT5-AS1 (B3GALT5 antisense RNA 1) | SID160754896 | -0.217 | 77.6 | 0.757 | 71 | inactive |
| TMEM268 (transmembrane protein 268) | SID160761113 | 1.46 | 111 | 1.28 | 88.5 | inactive |
| TMEM268 (transmembrane protein 268) | SID160761114 | 0.0101 | 82.1 | 0.104 | 89.3 | inactive |
| TMEM268 (transmembrane protein 268) | SID160761115 | 0.199 | 85.9 | -0.341 | 105 | inactive |
| GRIPAP1 (GRIP1 associated protein 1) | SID160733648 | 0.102 | 83.9 | 0.949 | 73 | inactive |
| GRIPAP1 (GRIP1 associated protein 1) | SID160745186 | 0.342 | 88.7 | 0.684 | 82.8 | inactive |
| GRIPAP1 (GRIP1 associated protein 1) | SID160745188 | -0.437 | 73.2 | -0.579 | 95.3 | inactive |
| IQSEC3 (IQ motif and Sec7 domain ArfGEF 3) | SID160767677 | 0.655 | 94.9 | 1.69 | 67.9 | inactive |
| IQSEC3 (IQ motif and Sec7 domain ArfGEF 3) | SID160767678 | -0.746 | 67.1 | -0.958 | 96.4 | inactive |
| IQSEC3 (IQ motif and Sec7 domain ArfGEF 3) | SID160767679 | -1.56 | 50.8 | -1.81 | 91.4 | inactive |
| SMIM20 (small integral membrane protein 20) | SID160733233 | 0.804 | 97.9 | -0.28 | 118 | inactive |
| SMIM20 (small integral membrane protein 20) | SID160766128 | -0.042 | 81.1 | 0.226 | 85.3 | inactive |
| SMIM20 (small integral membrane protein 20) | SID160766129 | 0.623 | 94.3 | 1.04 | 80.1 | inactive |
| SLC35F6 | SID160742656 | -1.72 | 47.7 | -2.42 | 101 | inactive |
| SLC35F6 | SID160742657 | -0.183 | 78.2 | 0.7 | 72.7 | inactive |
| SLC35F6 | SID160742658 | -1.02 | 61.5 | 0.42 | 61.5 | inactive |
| SNX25 (sorting nexin 25) | SID160751505 | -0.785 | 66.3 | -0.752 | 90.3 | inactive |
| SNX25 (sorting nexin 25) | SID160751506 | 1.48 | 111 | 1.2 | 90.5 | inactive |
| SNX25 (sorting nexin 25) | SID160751507 | -1.35 | 55.1 | -1.2 | 84.4 | inactive |
| DGCR2 (DiGeorge syndrome critical region gene 2) | SID160723631 | 0.0415 | 82.7 | 0.153 | 88.8 | inactive |
| DGCR2 (DiGeorge syndrome critical region gene 2) | SID160723632 | 1.74 | 116 | 1.87 | 79.5 | inactive |
| DGCR2 (DiGeorge syndrome critical region gene 2) | SID160723634 | 0.543 | 92.7 | 0.823 | 83.4 | inactive |
| SLC31A1 | SID160746761 | 0.175 | 85.4 | 0.118 | 92.5 | inactive |
| SLC31A1 | SID160746770 | -1.85 | 45.2 | -2.41 | 95.2 | inactive |
| SLC31A1 | SID160746780 | 1.48 | 111 | 0.57 | 107 | inactive |
| FRMPD3 (FERM and PDZ domain containing 3) | SID160752254 | -0.305 | 75.8 | -0.424 | 94.7 | inactive |
| FRMPD3 (FERM and PDZ domain containing 3) | SID160752255 | -0.532 | 71.3 | -0.638 | 94.3 | inactive |
| FRMPD3 (FERM and PDZ domain containing 3) | SID160752256 | -0.801 | 66 | -1.74 | 116 | inactive |
| RSPH9 (radial spoke head component 9) | SID160761685 | 0.236 | 86.6 | 0.25 | 90.6 | inactive |
| RSPH9 (radial spoke head component 9) | SID160761686 | -0.181 | 78.3 | 0.347 | 79.8 | inactive |
| RSPH9 (radial spoke head component 9) | SID160761687 | -0.339 | 75.1 | 0.535 | 72.9 | inactive |
| CYSLTR2 (cysteinyl leukotriene receptor 2) | SID160745605 | -0.394 | 74 | -0.223 | 87.7 | inactive |
| CYSLTR2 (cysteinyl leukotriene receptor 2) | SID160745606 | -0.847 | 65 | -1.04 | 95.5 | inactive |
| CYSLTR2 (cysteinyl leukotriene receptor 2) | SID160745607 | -1.46 | 52.9 | -1.61 | 90.2 | inactive |
| PAGE1 (PAGE family member 1) | SID160720651 | -0.652 | 68.9 | -0.317 | 83.7 | inactive |
| PAGE1 (PAGE family member 1) | SID160720652 | 0.047 | 82.8 | 1.59 | 60.9 | inactive |
| PAGE1 (PAGE family member 1) | SID160720653 | -2.46 | 33 | -1.21 | 50.7 | inactive |
| OR4C45 | SID160767485 | 0.832 | 98.4 | 1.78 | 68.8 | inactive |
| OR4C45 | SID160767486 | 0.458 | 91 | 0.854 | 81.2 | inactive |
| OR4C45 | SID160767487 | -0.976 | 62.5 | -1.21 | 96 | inactive |
| SPATA22 (spermatogenesis associated 22) | SID160752599 | -0.22 | 77.5 | -0.692 | 104 | inactive |
| SPATA22 (spermatogenesis associated 22) | SID160752601 | -1.16 | 58.9 | -1.73 | 104 | inactive |
| SPATA22 (spermatogenesis associated 22) | SID160752602 | -1.23 | 57.5 | -1.75 | 102 | inactive |
| KLHL8 (kelch like family member 8) | SID160746282 | -0.157 | 78.8 | -0.263 | 94.3 | inactive |
| KLHL8 (kelch like family member 8) | SID160746284 | -0.306 | 75.8 | -0.651 | 101 | inactive |
| KLHL8 (kelch like family member 8) | SID160746285 | -1.26 | 56.9 | -1.35 | 90.6 | inactive |
| DPYSL4 (dihydropyrimidinase like 4) | SID160728759 | -0.936 | 63.3 | -0.822 | 87.8 | inactive |
| DPYSL4 (dihydropyrimidinase like 4) | SID160728760 | -0.189 | 78.1 | -0.0306 | 88 | inactive |
| DPYSL4 (dihydropyrimidinase like 4) | SID160728761 | 0.0936 | 83.7 | 1.54 | 62.4 | inactive |
